Measurements reported in PubChem BioAssay AID1671190 (National Center for Advancing Translational Sciences (NCATS), 2021).
About 6,100 (1.1%) of roughly 580,000 compounds were called active. The inconclusive results got no clear call from the source; some entries with a clear call stand among them for comparison. The call rests on the fitted dose curve; in most records, active means well fitted inhibition curve with a large enough effect; inconclusive means small, poorly fitted or top-dose-only effect, or another doubt; inactive means no such curve, though single readings can be large or run the other way. Where the call is inconclusive, the potency comes from a doubtful curve fit.

Amino acid sequences for entries named in this document (tags omitted). A change or cut given only in a name is not applied to a line headed by its entry.
UniProt P18054: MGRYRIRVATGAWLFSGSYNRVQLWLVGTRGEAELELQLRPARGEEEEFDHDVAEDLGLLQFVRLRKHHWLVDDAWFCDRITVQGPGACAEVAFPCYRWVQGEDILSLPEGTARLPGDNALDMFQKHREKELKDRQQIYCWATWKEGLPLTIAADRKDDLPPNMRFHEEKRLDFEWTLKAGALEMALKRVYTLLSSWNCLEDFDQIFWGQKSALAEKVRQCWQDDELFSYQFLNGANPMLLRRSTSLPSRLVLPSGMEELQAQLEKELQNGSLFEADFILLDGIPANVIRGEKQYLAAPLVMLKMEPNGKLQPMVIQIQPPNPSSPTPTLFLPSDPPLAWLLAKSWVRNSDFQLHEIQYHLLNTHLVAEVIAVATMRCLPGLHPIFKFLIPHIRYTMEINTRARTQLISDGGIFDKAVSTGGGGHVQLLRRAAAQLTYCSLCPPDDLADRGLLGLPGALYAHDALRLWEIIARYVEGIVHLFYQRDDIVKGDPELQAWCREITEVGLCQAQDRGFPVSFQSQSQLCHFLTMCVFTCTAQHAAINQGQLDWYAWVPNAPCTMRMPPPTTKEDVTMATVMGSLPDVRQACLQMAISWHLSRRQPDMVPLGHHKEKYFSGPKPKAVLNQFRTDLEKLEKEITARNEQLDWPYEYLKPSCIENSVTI

What follows are molecules tested against Polyunsaturated fatty acid lipoxygenase ALOX12 (Homo sapiens) (UniProt P18054) (assay: Primary qHTS assay for inhibitors of human arachidonate 12S-lipoxygenase (ALOX12): Round 2). Conditions: purified 12hLO, xylenol orange hydroperoxide absorbance; activity change, negative = inhibition: at 108 µM (top of the series) unless noted.
Summary of the method: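 Hydroperoxide product was detected by ferrous iron/xylenol orange as the 573 to 405 nm absorbance ratio. Arachidonic acid at 40 uM (final) was turned over for 30 min at room temperature by 150 nM human 12hLO, pH 7.0 Hepes buffer, after 15 min compound preincubation.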
On the % scale 0 is the no-effect control and ±100 the full control effect; potency means the concentration at half of the fitted maximal effect.

SMILES	Potency	activity change, negative = inhibition
COc1cc(/C=C2\SC(=Nc3ccccc3OC)NC2=O)ccc1O	inconclusive: 50.1 µM [inhibitor, partial curve, poor fit]	–
COc1ccc(C2c3ccc(O)cc3Oc3ncn4nc(-c5ccncc5)nc4c32)cc1OC (configuration not stated)	–	inactive: 7.48%
CCOC(=O)C1=C(CC)OC(N)=C(C#N)C1c1cc(OC)ccc1OC (configuration not stated)	inconclusive: 100 µM [inhibitor, partial curve, poor fit]	–
Cc1ccc(-c2csc3ncn(CC#N)c(=O)c23)cc1C	inconclusive: 0.501 µM [inhibitor, full curve, poor fit]	–
c1coc(-c2cc(-c3nc(-c4ccc5c(c4)OCO5)no3)[nH]n2)c1	inconclusive: 35.5 µM [inhibitor, partial curve, poor fit]	–
Cc1cc(C#N)c(C)n1-c1cc(S(=O)(=O)N2CCOCC2)ccc1N1CCCC1	inconclusive: 2.24 µM [inhibitor, full curve, poor fit]	–
COCCC(=O)N1CCC(Oc2ccc(C(=O)N3CCCC(OC)C3)cc2)CC1 (configuration not stated)	–	inactive: 0.616%
CCc1ccc(-c2nc(CN3CCCC(C(=O)NCc4ccccc4Cl)C3)c(C)o2)cc1 (configuration not stated)	–	inactive: 0%
CC1(c2ccccc2)NC(=O)N(CC(=O)Nc2ccc3c(c2)OCO3)C1=O (configuration not stated)	–	inactive: -13%
Cc1ccccc1CSc1nc(C(C)(C)C)cc(=O)[nH]1	–	inactive: 3.22%
O/N=C/c1ccc(OCc2ccccc2)c(OCc2ccccc2)c1	inconclusive: 56.2 µM [inhibitor, full curve, poor fit]	–
O=C(c1ccccc1F)N1CCCC2(C1)C(=NC1CCCCC1)NC(=O)N2c1cccnc1 (configuration not stated)	inactive	–
COC(=O)C1C(=O)/C(=C(/C)N2CCCC2)C(=O)CC1(C)C (configuration not stated)	inconclusive: 56.2 µM [inhibitor, partial curve, poor fit]	–
O=C(COc1ccc(F)cc1F)NC1CCCN(c2ncccn2)C1 (configuration not stated)	inconclusive: 79.4 µM [inhibitor, single point]	–
C#CCOc1cc(Br)c(/C=C2\NC(=O)NC2=O)cc1OCC	inconclusive: 39.8 µM [inhibitor, partial curve, poor fit]	–
COc1cc2c(cc1OC)C(c1ccc(-c3ccc(Cl)c(Cl)c3)o1)=NCC2	inconclusive: 50.1 µM [inhibitor, partial curve]	–
COc1cccc(Nc2ccc(N3CCCCC3)cc2)c1OC	inconclusive: 44.7 µM [inhibitor, partial curve, poor fit]	–
COc1ccc(C(NC(C)=O)c2cc(Cl)c3cccnc3c2O)cc1 (configuration not stated)	inconclusive: 4.47 µM [inhibitor, full curve, poor fit]	–
COc1ccc(-c2cc3ccc(OS(=O)(=O)c4ccc(F)cc4)cc3oc2=O)cc1OC	–	inactive: 27.8%
C/C(=N\Nc1cc(-c2ccccc2)nc(-c2ccc(Br)cc2)n1)c1cccc(N)c1	–	inactive: 9.6%
Cc1ccc(S(=O)(=O)n2cnc3cc([N+](=O)[O-])ccc32)cc1C	–	inactive: -22.1%

SMILES	Potency	activity change, negative = inhibition
COc1ccc(F)cc1S(=O)(=O)N1C[C@@H](C(N)=O)[C@H](C2CCN(C)CC2)C1	inconclusive: 1.41 µM [inhibitor, full curve]	–
C=C1C[C@H]2[C@@H]3C=C(C)C4=CC(=O)CC[C@]4(C)[C@H]3CC[C@]2(C)[C@@]1(OC(C)=O)C(C)=O	inactive	–
COc1ccc(N(CC(=O)NC2CCCC2)S(=O)(=O)c2ccc(NC(C)=O)cc2)cc1	–	inactive: -12.3%
Cc1cccc(CSc2nc3nc[nH]c3c(=O)[nH]2)c1	inconclusive: 112 µM [inhibitor, single point]	–
CC(C)(C)C(=O)NCc1ccc(-c2csc(NC3CC3)n2)s1	inconclusive: 20 µM [inhibitor, partial curve]	–
COc1ccc(/C(O)=C2/C(=O)C(=O)N(CC3CCCO3)C2c2cccc(OC)c2)cc1 (configuration not stated)	inconclusive: 5.62 µM [inhibitor, single point]	–
N#Cc1ccccc1S(=O)(=O)N1CCN(C(=O)C2CC(=O)N(c3ccc4c(c3)OCCO4)C2)CC1 (configuration not stated)	–	inactive: 23.4%
CCN1C(=O)/C(=C/c2ccc(N3CCCC3)cc2)NC1=S	inconclusive: 44.7 µM [inhibitor, partial curve, poor fit]	–
COc1ccc(/C=C(/C(=O)c2ccccc2)c2nc3ccccc3s2)cc1O	inconclusive: 31.6 µM [inhibitor, single point]	–
O=c1[nH]c(=S)[nH]c2sc3c(c12)CCCCCC3	inconclusive: 35.5 µM [inhibitor, partial curve, poor fit]	–
N#Cc1ccc(/C=C(/CC(=O)O)c2nc3ccccc3o2)cc1	inconclusive: 56.2 µM [inhibitor, single point]	–
COc1cc(C(=O)N(CCCN(C)C)c2nc3c(OC)cccc3s2)cc(OC)c1OC	inconclusive: 126 µM [inhibitor, partial curve, poor fit]	–
O=C(N/N=C/c1cc([N+](=O)[O-])ccc1O)c1cccc(N2CCCC2=O)c1	inconclusive: 7.94 µM [inhibitor, full curve, poor fit]	–
Cc1ccc(C(Nc2ccc3nnnn3n2)c2cccs2)cc1 (configuration not stated)	inconclusive: 44.7 µM [inhibitor, partial curve, poor fit]	–
COc1cc(C)c(NC(=O)Cn2cnc3c2c(=O)n(C)c(=O)n3C)cc1OC	inconclusive: 50.1 µM [inhibitor, single point]	–
CC(C)c1ccc(/C=N/NC(=O)c2ccccc2Cl)cc1	–	inactive: -2.11%
Cc1ccc(-c2cc(C(F)(F)C(F)F)[nH]n2)cc1	inconclusive: 100 µM [inhibitor, single point]	–
O=C(NC(=S)Nc1ccccc1N1CCOCC1)c1ccc(-c2cccc(Cl)c2)o1	active: 39.8 µM	–
COc1ccc([C@@]2(O)c3c(ccc(CC=C(C)C)c3O)NC(=O)[C@@H]2OC)cc1	inconclusive: 50.1 µM [inhibitor, partial curve, poor fit]	–
Oc1ccccc1-c1nc(NCc2ccco2)c2ccccc2n1	inconclusive: 44.7 µM [inhibitor, single point]	–
CCN1CCC2(CC1)N=C(SCC(=O)Nc1ccc(F)c(Cl)c1)C(c1ccccc1)=N2	inconclusive: 50.1 µM [inhibitor, partial curve, poor fit]	–

Compounds listed so far that contain a tert-butyl group, in the order listed:
SMILES	Potency	activity change, negative = inhibition
Cc1ccccc1CSc1nc(C(C)(C)C)cc(=O)[nH]1	–	inactive: 3.22%
CC(C)(C)C(=O)NCc1ccc(-c2csc(NC3CC3)n2)s1	inconclusive: 20 µM [inhibitor, partial curve]	–
